We go through one sequence from PMC7058931, “DNA topoisomerase IIIβ promotes cyst generation by inducing cyst wall protein gene expression in Giardia lamblia”.

A weaker result is weaker than the reference pair of the same experiment. Protein sequences can lack the tags named with them.

The data set deals with T1, TOP3β (DNA topoisomerase IIIβ) (Giardia lamblia WB) (UniProt A8B577).
T1 sequence (looked up): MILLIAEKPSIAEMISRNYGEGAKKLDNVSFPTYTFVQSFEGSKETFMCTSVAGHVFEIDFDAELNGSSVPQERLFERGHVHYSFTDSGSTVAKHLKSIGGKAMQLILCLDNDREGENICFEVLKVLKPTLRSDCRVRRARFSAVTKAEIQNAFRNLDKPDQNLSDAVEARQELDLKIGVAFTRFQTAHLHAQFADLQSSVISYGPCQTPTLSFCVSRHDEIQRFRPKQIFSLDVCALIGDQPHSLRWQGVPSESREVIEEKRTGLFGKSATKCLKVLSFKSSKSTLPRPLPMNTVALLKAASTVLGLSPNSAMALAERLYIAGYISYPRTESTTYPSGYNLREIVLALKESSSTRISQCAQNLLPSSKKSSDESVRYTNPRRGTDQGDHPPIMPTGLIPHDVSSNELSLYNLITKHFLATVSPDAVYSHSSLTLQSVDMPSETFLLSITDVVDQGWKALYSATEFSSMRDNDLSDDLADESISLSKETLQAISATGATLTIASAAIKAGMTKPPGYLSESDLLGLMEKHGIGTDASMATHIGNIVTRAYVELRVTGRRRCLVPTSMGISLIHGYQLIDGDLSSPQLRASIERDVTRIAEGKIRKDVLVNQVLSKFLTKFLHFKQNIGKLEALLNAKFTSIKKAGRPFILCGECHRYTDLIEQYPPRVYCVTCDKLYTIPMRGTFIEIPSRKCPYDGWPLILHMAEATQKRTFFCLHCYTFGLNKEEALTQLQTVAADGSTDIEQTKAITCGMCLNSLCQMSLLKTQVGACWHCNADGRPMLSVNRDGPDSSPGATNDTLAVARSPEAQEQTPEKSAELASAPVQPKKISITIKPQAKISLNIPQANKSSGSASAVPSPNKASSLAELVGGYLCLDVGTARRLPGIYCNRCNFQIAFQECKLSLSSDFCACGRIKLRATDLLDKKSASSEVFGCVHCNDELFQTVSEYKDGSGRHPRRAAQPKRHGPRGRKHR
Kind of data set: EMSA. The note with it: EMSA: 0.02 pmol 32P probe, 5 ng protein, 20 µl, 0.5 µg poly(dI-dC), 15 min at room temperature, 6% acrylamide gel; recombinant protein; residues 1-973; protein details: C-terminal V5 and His; label: 5'-32P.

As to “AAAAAAAAAAAAAAAAAAAAAAA (double strand) [poly A]”, the binding result is “binds more weakly”.
